Drawing on PMC8473878, this text covers binding for 3 substances.

Protein sequences, listed by entry. Tags and fused reporters are not part of them. Residues count along the entry.
UniProt P30530, residues 26-894: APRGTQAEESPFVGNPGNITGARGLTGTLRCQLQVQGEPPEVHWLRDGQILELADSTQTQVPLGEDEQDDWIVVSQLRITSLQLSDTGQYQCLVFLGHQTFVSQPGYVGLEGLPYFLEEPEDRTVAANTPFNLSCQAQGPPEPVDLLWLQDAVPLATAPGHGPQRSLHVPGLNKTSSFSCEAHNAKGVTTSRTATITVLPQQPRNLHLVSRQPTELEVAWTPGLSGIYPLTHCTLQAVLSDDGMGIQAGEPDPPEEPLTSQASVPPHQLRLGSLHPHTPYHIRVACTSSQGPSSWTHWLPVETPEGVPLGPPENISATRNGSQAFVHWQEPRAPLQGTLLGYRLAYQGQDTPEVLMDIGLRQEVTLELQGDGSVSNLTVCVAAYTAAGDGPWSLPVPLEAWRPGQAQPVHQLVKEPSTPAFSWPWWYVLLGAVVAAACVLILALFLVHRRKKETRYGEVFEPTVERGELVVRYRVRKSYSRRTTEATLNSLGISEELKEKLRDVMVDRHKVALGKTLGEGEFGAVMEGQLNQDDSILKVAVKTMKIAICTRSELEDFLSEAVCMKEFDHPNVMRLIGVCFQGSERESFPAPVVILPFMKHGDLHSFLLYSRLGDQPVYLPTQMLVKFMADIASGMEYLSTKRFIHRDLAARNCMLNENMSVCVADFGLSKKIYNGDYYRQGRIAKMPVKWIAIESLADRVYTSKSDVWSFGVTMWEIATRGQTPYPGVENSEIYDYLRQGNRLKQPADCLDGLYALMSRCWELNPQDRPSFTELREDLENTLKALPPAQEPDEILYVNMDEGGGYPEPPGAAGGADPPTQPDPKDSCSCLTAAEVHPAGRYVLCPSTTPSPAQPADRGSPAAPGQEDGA
UniProt P10909, residues 23-449: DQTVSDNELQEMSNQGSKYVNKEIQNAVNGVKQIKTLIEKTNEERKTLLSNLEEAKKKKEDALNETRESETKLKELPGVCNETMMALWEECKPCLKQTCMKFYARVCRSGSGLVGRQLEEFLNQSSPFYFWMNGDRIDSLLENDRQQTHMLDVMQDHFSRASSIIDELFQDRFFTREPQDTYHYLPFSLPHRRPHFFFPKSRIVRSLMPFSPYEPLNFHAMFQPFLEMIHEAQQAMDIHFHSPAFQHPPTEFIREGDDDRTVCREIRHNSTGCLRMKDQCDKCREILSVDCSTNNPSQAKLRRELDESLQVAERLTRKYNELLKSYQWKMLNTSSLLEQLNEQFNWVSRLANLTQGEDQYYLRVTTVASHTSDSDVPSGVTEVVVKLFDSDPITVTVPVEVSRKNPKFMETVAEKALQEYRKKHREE
UniProt Q14240: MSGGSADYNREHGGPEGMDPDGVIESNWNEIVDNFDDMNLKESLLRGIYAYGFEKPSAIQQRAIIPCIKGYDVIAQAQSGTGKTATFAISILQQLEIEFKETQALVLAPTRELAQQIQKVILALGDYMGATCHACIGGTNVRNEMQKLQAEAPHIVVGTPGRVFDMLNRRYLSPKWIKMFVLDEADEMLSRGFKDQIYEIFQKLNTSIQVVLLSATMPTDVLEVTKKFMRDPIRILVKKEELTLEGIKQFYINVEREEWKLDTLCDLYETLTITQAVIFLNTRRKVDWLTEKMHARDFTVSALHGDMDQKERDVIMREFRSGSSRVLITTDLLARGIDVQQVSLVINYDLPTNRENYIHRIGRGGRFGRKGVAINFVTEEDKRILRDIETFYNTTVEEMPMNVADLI

No constants are given. Whether binding was seen depends on the method and setting. In cells and extracts the contact can be indirect. Some binding calls cover weakened binding; strength is not graded here. Sequences can lack the tags named with a protein.

This test concerns the target T1, 3×FLAG-fused B4GALNT2 (β1,4-N-acetylgalactosaminyltransferase 2) (UniProt Q8NHY0).
T1 sequence: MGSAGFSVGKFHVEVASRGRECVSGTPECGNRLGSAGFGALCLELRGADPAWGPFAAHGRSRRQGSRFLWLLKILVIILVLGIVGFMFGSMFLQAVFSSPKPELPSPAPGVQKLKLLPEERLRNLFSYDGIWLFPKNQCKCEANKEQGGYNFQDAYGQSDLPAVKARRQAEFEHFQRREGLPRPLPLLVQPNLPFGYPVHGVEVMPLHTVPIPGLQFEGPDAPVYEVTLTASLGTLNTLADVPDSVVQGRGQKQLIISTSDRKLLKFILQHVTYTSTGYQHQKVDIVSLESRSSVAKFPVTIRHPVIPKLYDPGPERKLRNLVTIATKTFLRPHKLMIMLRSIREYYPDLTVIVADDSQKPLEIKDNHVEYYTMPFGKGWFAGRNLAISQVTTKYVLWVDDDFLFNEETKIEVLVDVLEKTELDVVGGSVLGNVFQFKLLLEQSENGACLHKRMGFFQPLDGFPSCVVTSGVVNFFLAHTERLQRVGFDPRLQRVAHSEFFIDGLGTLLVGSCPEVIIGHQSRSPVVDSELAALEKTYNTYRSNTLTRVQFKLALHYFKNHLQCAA
In words: co-IP; Co-IP verification of 8 candidate proteins with 3×FLAG-B4GALNT2 in MDA-MB-231; further conditions not told.
Regarding “AXL (from UniProt P30530 26-894) (receptor)”, the binding entry is given as “binds”. For CLU (from UniProt P10909 23-449) the value was “binds”; for EIF4A2 (from UniProt Q14240 1-407), “binds”.
